Data published in article PMC4960319.
No constants are given. Whether binding was seen depends on the method and setting. Some binding calls cover weakened binding; strength is not graded here. Where a sequence is shown, tags or fusion partners need not be part of it.

Amino acid sequences for entries named in this document (tags omitted).
UniProt Q7AKG9: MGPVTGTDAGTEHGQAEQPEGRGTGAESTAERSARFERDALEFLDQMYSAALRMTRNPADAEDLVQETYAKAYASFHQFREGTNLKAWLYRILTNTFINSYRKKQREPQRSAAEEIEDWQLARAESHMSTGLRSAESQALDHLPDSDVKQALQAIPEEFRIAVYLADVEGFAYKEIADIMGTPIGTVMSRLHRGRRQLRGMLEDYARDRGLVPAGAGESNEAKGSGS

Assays:
[1] = biological target: T1, RsrA with N-terminal histidine tag, co-expressed with σ^R (pET15b-rsrA) (Streptomyces coelicolor) (UniProt Q7AKG8); assay: co-purification of co-expressed proteins (Ni-NTA, then SEC); RsrA and σ^R co-expressed in E. coli; captured by the N-terminal histidine tag of RsrA on Ni-NTA, then Superdex-75
T1 sequence: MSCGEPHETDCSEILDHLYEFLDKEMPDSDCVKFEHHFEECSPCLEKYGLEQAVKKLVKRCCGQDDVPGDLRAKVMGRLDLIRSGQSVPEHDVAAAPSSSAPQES

[2] = biological target: T1, RsrA with N-terminal histidine tag, co-expressed with σ^R (pET15b-rsrA) (Streptomyces coelicolor); assay: cross-linking; 5 μM purified complex with 2 mM BS2G-d0/d4 or BS3-d0/d4, 20 mM Hepes pH 7.5, 50 mM NaCl, 2 mM DTT, room temperature 30 min; SDS-PAGE bands digested with trypsin, LC-MS/MS, pLink; both purified

- binding [1]: binds
- binding [2]: binds
Substance: σ^R co-expressed with RsrA (pCDF-DUET1-sigR) (from UniProt Q7AKG9 1-227)
